Patent US20190225665A1
These are yes or no findings as the source states them, for the method shown. Some entries that bind do so weakly or less than the wild type.

T1: wild-type IFN-λ3 (human) (UniProt Q8IZI9)
T1 sequence: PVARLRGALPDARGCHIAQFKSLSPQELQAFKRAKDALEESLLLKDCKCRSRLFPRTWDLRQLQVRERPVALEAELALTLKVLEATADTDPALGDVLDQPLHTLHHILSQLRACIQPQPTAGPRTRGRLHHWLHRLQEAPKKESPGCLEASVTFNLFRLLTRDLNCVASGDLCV

T2: IFN-λR1 (human) (UniProt Q8IU57)
T2 sequence (looked up): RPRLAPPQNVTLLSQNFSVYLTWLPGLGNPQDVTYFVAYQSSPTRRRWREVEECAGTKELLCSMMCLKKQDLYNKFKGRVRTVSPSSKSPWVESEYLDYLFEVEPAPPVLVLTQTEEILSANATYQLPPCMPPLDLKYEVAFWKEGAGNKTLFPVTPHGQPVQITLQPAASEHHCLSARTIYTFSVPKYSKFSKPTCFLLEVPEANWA


Columns and labels:
wild-type IFN-λ3 (human) = biological target: T1, wild-type IFN-λ3 (human); test: flow cytometry of yeast-displayed wild-type IFN-λ3 stained with 50 nM streptavidin tetramers of IFN-λR1 (FL2, y-axis); IL-10Rβ monomer or tetramers also present
IFN-λR1 (human) = biological target: T2, IFN-λR1 (human); test: yeast surface display, flow cytometry

| Binder | binding (wild-type IFN-λ3 (human)) | binding (IFN-λR1 (human)) |
| --- | --- | --- |
| IFN-λR1 streptavidin tetramers (receptor, human, UniProt Q8IU57 21-228, looked up) receptor chain presented on streptavidin: RPRLAPPQNVTLLSQNFSVYLTWLPGLGNPQDVTYFVAYQSSPTRRRWREVEECAGTKELLCSMMCLKKQDLYNKFKGRVRTVSPSSKSPWVESEYLDYLFEVEPAPPVLVLTQTEEILSANATYQLPPCMPPLDLKYEVAFWKEGAGNKTLFPVTPHGQPVQITLQPAASEHHCLSARTIYTFSVPKYSKFSKPTCFLLEVPEANWA | binds | – |
| wild-type IFN-λ3 (ligand) PVARLRGALPDARGCHIAQFKSLSPQELQAFKRAKDALEESLLLKDCKCRSRLFPRTWDLRQLQVRERPVALEAELALTLKVLEATADTDPALGDVLDQPLHTLHHILSQLRACIQPQPTAGPRTRGRLHHWLHRLQEAPKKESPGCLEASVTFNLFRLLTRDLNCVASGDLCV | – | binds |
